The values that follow come from the supplement of paper PMC4371806.

Structures are written as SMILES. In all, about 1,600 compounds were measured (“plate-normalized OD600 growth (mean of duplicates)”: median about 0.31, lowest 2% from about 0.23 on). The list shows a part of the results.

The subject of the experiment is Escherichia coli BW25113. Description: plate-normalized OD600 growth (mean of duplicates) (OD600 (normalized)); higher = more growth (less inhibition). The settings on record: 10 µM. As to the method:
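E. coli BW25113 in LB (100 µl, 96-well, no shaking) was exposed to 10 µM of each compound (here the ChemBridge subset of a ~30,000-member library) and grown at 37°C for 24 h or 15°C for 48 h, in duplicate. Growth was read as OD600 and the duplicate ODs were normalized across screening plates to correct plate-to-plate variation.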

With `O=C(c1ccccc1)c1cc(F)c(N2CCOCC2)cc1Cl`, the “plate-normalized OD600 growth” value turned out to be 0.239 (temperature: 15°C, 48 h) and 0.601 (temperature: 37°C, 24 h).
On the same counts, the results for `O=[N+]([O-])c1ccc(S(=O)(=O)N2CCCCCC2)cc1` are 0.269 and 0.616.
On the same counts, the results for `CN1C=CC=C/C1=C\C=C1\C=Nc2ccccc21` are 0.258 and 0.635.
For `COc1ccc(N2CCN(Cc3cccc(OC)c3OC)CC2)cc1`, the “plate-normalized OD600 growth” value (temperature: 15°C, 48 h) is 0.254 and the “plate-normalized OD600 growth” value (temperature: 37°C, 24 h) is 0.625.
In the same order, the values of `CC(NC(=O)C(c1ccccc1)c1ccccc1)c1ccccc1` (configuration not stated) are 0.269 and 0.641.
Take `Cc1cc(C)n(-c2c(F)c(F)c(CO)c(F)c2F)n1`: the “plate-normalized OD600 growth” value (temperature: 15°C, 48 h) was 0.256 and the “plate-normalized OD600 growth” value (temperature: 37°C, 24 h) turned out to be 0.631.
Regarding `CN(Cc1ccc2c(c1)OCO2)C1CCCCC1`, the “plate-normalized OD600 growth” value (temperature: 15°C, 48 h) amounted to 0.253 and the “plate-normalized OD600 growth” value (temperature: 37°C, 24 h) turned out to be 0.606.
In the same order, the values of `O=C(/C=C/c1cc2c(cc1Br)OCO2)c1cccs1` are 0.249 and 0.622.
In the same order, the values of `CCN(CC)C(=O)c1ccc([N+](=O)[O-])o1` are 0.247 and 0.627.
In the same order, the values of `O=S(=O)(NC1CC1)c1ccc(Br)cc1` are 0.248 and 0.603.
In the case of `CC(=O)c1sc(Nc2ccc(Oc3ccccc3)cc2)nc1C`, the “plate-normalized OD600 growth” value (temperature: 15°C, 48 h) came out at 0.223 and the “plate-normalized OD600 growth” value (temperature: 37°C, 24 h) was 0.607.
On the same counts, the results for `COc1ccc(CN2CCc3c([nH]c4ccccc34)C2)cc1C` are 0.231 and 0.599.
On the same counts, the results for `O=C(Nc1cc(Cl)ccc1Cl)c1ccc(Br)o1` are 0.236 and 0.61.
In the same order, the values of `N#CCNC1CC(=O)N(c2ccc(Cl)cc2)C1=O` (configuration not stated) are 0.244 and 0.613.
As for `CN(Cc1ccccc1)C1CC(=O)N(c2ccc(Br)cc2)C1=O` (configuration not stated), the “plate-normalized OD600 growth” value amounted to 0.247 (temperature: 15°C, 48 h) and 0.599 (temperature: 37°C, 24 h).
`O=C(O)CCCC(=O)Nc1ccccc1Br`: the “plate-normalized OD600 growth” value is, setting by setting: (temperature: 15°C, 48 h) 0.239; (temperature: 37°C, 24 h) 0.581.
On the same counts, the results for `CC1(C)CC(=O)c2c(CC3CC(=O)NC(=O)C3)noc2C1` are 0.222 and 0.614.
On the same counts, the results for `CC(=O)N1c2ccccc2NC2=C(C(=O)CC(C)(C)C2)C1c1cccn1C` (configuration not stated) are 0.253 and 0.612.
On the same counts, the results for `CC(=O)c1sc(N2N=C(c3ccccc3)CC2c2ccccc2)nc1C` (configuration not stated) are 0.254 and 0.656.
With `CC(CN1CCOCC1)c1ccccc1` (configuration not stated), the “plate-normalized OD600 growth” value (temperature: 15°C, 48 h) amounted to 0.258 and the “plate-normalized OD600 growth” value (temperature: 37°C, 24 h) was 0.619.
As to `CC(=O)Nc1c(Cl)cnn(-c2ccccc2)c1=O`, the “plate-normalized OD600 growth” value runs as follows: (temperature: 15°C, 48 h) 0.303; (temperature: 37°C, 24 h) 0.645.
On the same counts, the results for `CCOC(=O)Nc1cccnc1[N+](=O)[O-]` are 0.271 and 0.648.
On the same counts, the results for `O=C(O)c1ccc2c(c1)C(=O)N(c1c[nH]c(=O)[nH]c1=O)C2=O` are 0.239 and 0.592.
On the same counts, the results for `COCC(O)CN1CCN(c2ccc(Cl)cc2[N+](=O)[O-])CC1` (configuration not stated) are 0.239 and 0.607.
Consider `CCCOc1ccc(NC(=O)c2ccc([N+](=O)[O-])cc2)cc1`, for which the “plate-normalized OD600 growth” value is 0.244 (temperature: 15°C, 48 h) and 0.624 (temperature: 37°C, 24 h).
In the same order, the values of `COc1ccc2[nH]c3ccc([N+](=O)[O-])cc3c(=O)c2c1` are 0.291 and 0.631.
In the same order, the values of `CC(=O)Nc1ccc2nc3c(=O)n(C)c(=O)n(C)c3nc2c1` are 0.241 and 0.617.
Turning to `COc1ccc(Cc2ccc(OC)c(N)c2)cc1N`, the “plate-normalized OD600 growth” value (temperature: 15°C, 48 h) was determined as 0.254 and the “plate-normalized OD600 growth” value (temperature: 37°C, 24 h) was 0.632.
On the same counts, the results for `Cc1ccc(S(=O)(=O)c2cc(O)ccc2O)cc1C` are 0.254 and 0.619.
In the same order, the values of `CC1CC(Nc2ccccc2)c2ccccc2N1` (configuration not stated) are 0.265 and 0.615.
As for `Cc1ccc(C2=C(O)c3ccccc3C(=O)C2=O)cc1`, the “plate-normalized OD600 growth” value (temperature: 15°C, 48 h) was 0.252 and the “plate-normalized OD600 growth” value (temperature: 37°C, 24 h) stood at 0.603.
In the same order, the values of `CC(C)(C)Sc1cc(C(=O)O)sc1C(=O)O` are 0.244 and 0.634.
On the same counts, the results for `CCN1CCN(C2CCC(C(C)(C)C)CC2)CC1` (configuration not stated) are 0.252 and 0.595.
On the same counts, the results for `O=C(NCCc1c[nH]c2ccc(OCc3ccccc3)cc12)C1CC1` are 0.26 and 0.618.
Take `CC(C)(C)c1ccc(S(=O)(=O)CCc2ccccn2)cc1`: the “plate-normalized OD600 growth” value reads like this: (temperature: 15°C, 48 h) 0.256; (temperature: 37°C, 24 h) 0.609.
In the same order, the values of `O=C(Nc1cccc([N+](=O)[O-])c1)C1CC1c1ccccc1` (configuration not stated) are 0.253 and 0.617.
In the same order, the values of `COc1ccc(CC(=O)Nc2ccccc2Br)cc1` are 0.236 and 0.608.
Take `c1ccc(COc2cccc(CN3CCSCC3)c2)cc1`: the “plate-normalized OD600 growth” value is, setting by setting: (temperature: 15°C, 48 h) 0.245; (temperature: 37°C, 24 h) 0.584.
On the same counts, the results for `CC(=O)c1c(C)nc2ccccn12` are 0.248 and 0.622.
In the same order, the values of `COc1cccc(C(N)CC(=O)O)c1` (configuration not stated) are 0.238 and 0.649.
On the same counts, the results for `NC(=O)c1ccc(C(N)=O)c(-c2ccccc2)c1` are 0.258 and 0.6.
Regarding `CCOc1ccc(C(=O)Nc2ccc(S(=O)(=O)Nc3nccs3)cc2)cc1`, the “plate-normalized OD600 growth” value runs as follows: (temperature: 15°C, 48 h) 0.241; (temperature: 37°C, 24 h) 0.613.
In the same order, the values of `O=C(c1ccccc1Cl)N1CCN(c2ccc(F)cc2)CC1` are 0.247 and 0.613.
`CN(C)CCN(C)Cc1ccc(Cl)cc1Cl`: the “plate-normalized OD600 growth” value by setting is: (temperature: 15°C, 48 h) 0.252; (temperature: 37°C, 24 h) 0.616.
In the same order, the values of `Cc1ccc(S(=O)(=O)NCC23C=CC(O2)C2C(=O)N(Cc4ccccc4)C(=O)C23)cc1` (configuration not stated) are 0.236 and 0.591.
`O=C(O)CC1c2ccccc2Oc2ccccc21`: the “plate-normalized OD600 growth” value stood at 0.243 (temperature: 15°C, 48 h) and 0.616 (temperature: 37°C, 24 h).
On the same counts, the results for `Cc1nc2cc(Cl)ccc2n1Cc1ccccc1` are 0.256 and 0.597.
In the same order, the values of `O=C1C2C(c3cccc(F)c3)OC3(C(=O)c4ccccc4C3=O)C2C(=O)N1C1CCCCC1` (configuration not stated) are 0.25 and 0.622.
On the same counts, the results for `C1CCCC(NCCCN2CCOCC2)CC1` are 0.246 and 0.609.
For `Cc1cccc(C)c1NC(=O)CN1CCCCC1`, the “plate-normalized OD600 growth” value came to 0.241 (temperature: 15°C, 48 h) and 0.618 (temperature: 37°C, 24 h).
On the same counts, the results for `O=C(O)CCCNc1ccc(S(=O)(=O)O)cc1` are 0.237 and 0.591.
As for `NCCOc1ccccc1Cc1ccccc1`, the “plate-normalized OD600 growth” value runs as follows: (temperature: 15°C, 48 h) 0.26; (temperature: 37°C, 24 h) 0.63.
In the same order, the values of `COc1cccc(NC(=O)c2ccncc2)c1` are 0.261 and 0.618.
In the same order, the values of `O=C(O)CN1C(=O)C(=O)c2ccccc21` are 0.261 and 0.62.
In the same order, the values of `CCn1c(C)nc2cc(Cl)c(Cl)cc21` are 0.277 and 0.66.
For `CN1CCCN(CC2CC3C=CC2C3)CC1` (configuration not stated), the “plate-normalized OD600 growth” value (temperature: 15°C, 48 h) worked out at 0.225 and the “plate-normalized OD600 growth” value (temperature: 37°C, 24 h) was 0.656.
On the same counts, the results for `Cc1cc(C)nc(SCCN2CCCC2)n1` are 0.25 and 0.615.
In the same order, the values of `O=C(O)C1C(=O)NCC1c1ccccc1` (configuration not stated) are 0.251 and 0.651.
As to `O=C(Nc1ccc([N+](=O)[O-])cc1)c1ccco1`, the “plate-normalized OD600 growth” value is, setting by setting: (temperature: 15°C, 48 h) 0.245; (temperature: 37°C, 24 h) 0.626.
`Cc1cc([N+](=O)[O-])ccc1NC(=O)c1ccc(F)cc1`: the “plate-normalized OD600 growth” value reads like this: (temperature: 15°C, 48 h) 0.259; (temperature: 37°C, 24 h) 0.647.
On the same counts, the results for `Cc1c(C#N)c(N=CN(C)C)c(C(=O)c2ccccc2)n1-c1ccccc1` are 0.246 and 0.596.
On the same counts, the results for `Cc1nn(-c2ccccc2)c(N2CCCCC2)c1C=O` are 0.266 and 0.62.
In the same order, the values of `O=C(CCCOc1ccc(Cl)cc1Cl)N1CCCCC1` are 0.241 and 0.613.
With `COc1ccccc1CNC(=O)C(c1ccccc1)c1ccccc1`, the “plate-normalized OD600 growth” value (temperature: 15°C, 48 h) worked out at 0.248 and the “plate-normalized OD600 growth” value (temperature: 37°C, 24 h) is 0.614.
For `CCN1CCC(N2CCN(c3ccc(F)cc3)CC2)CC1`, the “plate-normalized OD600 growth” value was determined as 0.239 (temperature: 15°C, 48 h) and 0.611 (temperature: 37°C, 24 h).
On the same counts, the results for `O=C(COc1ccc(Cl)cc1Cl)Nc1ccc(C(=O)O)cc1` are 0.261 and 0.618.
On the same counts, the results for `N#C/C(=C/C=C/c1ccccc1)c1nc(-c2cccs2)cs1` are 0.261 and 0.623.
On the same counts, the results for `Cc1nnc(Sc2ccc(C=O)o2)s1` are 0.227 and 0.604.
Regarding `O=C(Nc1ccccc1[N+](=O)[O-])c1cccc(S(=O)(=O)Nc2ccccc2)c1`, the “plate-normalized OD600 growth” value runs as follows: (temperature: 15°C, 48 h) 0.26; (temperature: 37°C, 24 h) 0.614.
In the same order, the values of `Cc1ccc(OCCCN2CCOCC2)cc1C` are 0.257 and 0.611.
On the same counts, the results for `O=C1c2ccccc2C(=O)C1c1nc2ccccc2[nH]1` are 0.269 and 0.667.
